Assay: peptide synthesis
Conditions: whole synthesis

Monomethoxy PEG5,000-lysyl-[lysyl-(α-Fmoc-ε-oleoyl lysine)2]2
isolated yield: 79%

From patent US20190038556A1 (University of Pittsburgh - Of The Commonwealth System of …, priority 2012, published 2019)
